Results reported in article PMC10943099.
No constants are given. Whether binding was seen depends on the method and setting. Binding seen in cells or lysates may run through a third protein. Here binding means that the protein was enriched with, or labelled near, the bait; the list need not be complete.

Amino acid sequences for entries named in this document (tags omitted).
UniProt O75175: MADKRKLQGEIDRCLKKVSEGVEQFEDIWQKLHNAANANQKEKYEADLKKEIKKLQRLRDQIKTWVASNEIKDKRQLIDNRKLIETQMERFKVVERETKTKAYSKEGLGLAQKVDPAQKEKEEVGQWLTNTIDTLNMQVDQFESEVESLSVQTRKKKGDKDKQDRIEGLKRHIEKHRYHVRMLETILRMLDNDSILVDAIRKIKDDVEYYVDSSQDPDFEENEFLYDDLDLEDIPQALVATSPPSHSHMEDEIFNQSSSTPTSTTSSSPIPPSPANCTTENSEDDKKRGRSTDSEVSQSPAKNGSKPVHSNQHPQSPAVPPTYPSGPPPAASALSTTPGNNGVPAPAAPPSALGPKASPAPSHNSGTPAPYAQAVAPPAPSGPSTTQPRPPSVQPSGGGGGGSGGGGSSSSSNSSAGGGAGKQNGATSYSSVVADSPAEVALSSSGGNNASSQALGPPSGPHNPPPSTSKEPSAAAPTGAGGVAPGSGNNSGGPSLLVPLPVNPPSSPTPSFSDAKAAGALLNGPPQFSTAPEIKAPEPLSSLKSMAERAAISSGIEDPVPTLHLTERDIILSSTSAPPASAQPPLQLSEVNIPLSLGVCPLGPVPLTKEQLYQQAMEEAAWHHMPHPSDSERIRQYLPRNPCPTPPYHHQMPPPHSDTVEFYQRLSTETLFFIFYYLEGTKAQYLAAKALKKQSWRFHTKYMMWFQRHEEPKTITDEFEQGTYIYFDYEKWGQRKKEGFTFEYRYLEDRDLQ
UniProt P26641: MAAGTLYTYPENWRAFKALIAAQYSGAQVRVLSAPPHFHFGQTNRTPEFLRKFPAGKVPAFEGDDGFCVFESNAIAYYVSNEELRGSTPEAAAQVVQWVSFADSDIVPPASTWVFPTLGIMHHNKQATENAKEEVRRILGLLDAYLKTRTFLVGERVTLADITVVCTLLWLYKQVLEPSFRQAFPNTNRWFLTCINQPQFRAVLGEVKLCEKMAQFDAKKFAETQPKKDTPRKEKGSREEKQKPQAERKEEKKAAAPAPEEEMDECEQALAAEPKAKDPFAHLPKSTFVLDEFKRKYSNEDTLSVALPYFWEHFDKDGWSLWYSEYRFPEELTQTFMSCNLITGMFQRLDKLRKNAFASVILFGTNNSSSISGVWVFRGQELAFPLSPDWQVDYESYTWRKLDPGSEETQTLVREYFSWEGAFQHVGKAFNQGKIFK

B1: EEF1E, the auxiliary component of the multi-synthetase complex (endogenous) (protein, UniProt O43324 1-174)
chain: MAAAAELSLLEKSLGLSKGNKYSAQGERQIPVLQTNNGPSLTGLTTIAAHLVKQANKEYLLGSTAEEKAIVQQWLEYRVTQVDGHSSKNDIHTLLKDLNSYLEDKVYLTGYNFTLADILLYYGLHRFIVDLTVQEKEKYLNVSRWFCHIQHYPGIRQHLSSVVFIKNRLYTNSH

Biological target: CNOT3, subunit of the CCR4-NOT complex (endogenous) (human (endogenous in MOLM13)) (UniProt O75175)
Test: affinity purification with mass spectrometry; immunoprecipitation of endogenous CNOT3 with anti-CNOT3 antibody (anti-mouse IgG as control) on protein A/G Dynabeads from MOLM13 lysate in 1x RIPA buffer, overnight at 4 °C; LC-MS/MS of co-precipitated proteins

| Molecule | binding |
| --- | --- |
| EEF1G (endogenous) (from UniProt P26641 1-437) | binds |
| B1 | binds |
